Assay results taken from patent US8957096B2, “Herbicidally active oxime-ether-substituted benzoylamides” (Bayer Intellectual Property GmbH, priority 2011, dated 2015).
Some of these results come from one statement about several compounds together.

Tests used:
Assay type in all cases: in vivo
Amaranthus retroflexus [1] = assay: Pre-emergence herbicidal action against harmful plants; conditions: application rate 320 g/ha, assessed visually after 3 weeks vs untreated controls
Description: (§1) 1. Pre-Emergence Herbicidal Action Against Harmful Plants Seeds of monocotyledonous and dicotyledonous weed plants and crop plants are placed in wood-fiber pots in sandy loam and covered with soil. The compounds according to the invention, formulated in the form of wettable powders (WP) or as emulsion concentrates (EC), are then applied as aqueous suspension or emulsion at a water application rate of 600 to 800 l/ha (converted) with the addition of 0.2% of wetting agent to the surface of the covering soil. After the treatment, the pots are placed in a greenhouse and kept under good growth conditions for the test plants. The damage to the test plants is assessed visually after a test period of 3 weeks by comparison with untreated controls (herbicidal activity in percent (%): 100% activity=the plants have died, 0% activity=like control plants). Here, the compounds Nos. 1-002, 1-004, 1-007, 1-008, 1-043, 1-044, 1-046, 1-047, 1-060, 1-079, 1-080, 1-082, 1-083, 1-085, 1-095, 1-096, 1-098, 1-099, 1-059, 2-015, 3-015, 3-018, 3-020, 4-001, 4-118, 5-004, 5-017, 5-043, 5-056, 5-082, 5-095, 6-017, 7-017, 8-017 and 8-014, for example, each show, at an application rate of 320 g/ha, an activity of at least 80% against Abuthilon theophrasti and Amaranthus retroflexus. The compounds Nos. 1-001, 1-005, 1-014, 1-015, 1-017, 1-018, 1-020, 1-033, 1-040, 1-041, 1-053, 1-054, 1-056, 1-057, 1-092, 1-093, 3-014, 3-015, 8-014, 8-017 and 8-015 each show, at an application rate of 320 g/ha, an activity of at least 80% against Setaria viridis and Stellaria media. The compounds Nos. 3-017, 4-092 and 6-004 show, at an application rate of 320 g/ha, an activity of at least 80% against Amaranthus retroflexus and Veronica persica.

Abuthilon theophrasti [2] = assay: as above; conditions: application rate 320 g/ha, assessed visually after 3 weeks vs untreated controls
Description: as §1

Amaranthus retroflexus [3] = assay: Post-emergence herbicidal action against harmful plants; conditions: application rate 80 g/ha, assessed visually after about 3 weeks vs untreated controls
Experimental: (§2) 2. Post-Emergence Herbicidal Action Against Harmful Plants Seeds of monocotyledonous and dicotyledonous weed and crop plants are placed in sandy loam in wood-fiber pots, covered with soil and cultivated in a greenhouse under good growth conditions. 2 to 3 weeks after sowing, the test plants are treated at the one-leaf stage. The inventive compounds formulated in the form of wettable powders (WP) or as emulsion concentrates (EC) are then sprayed onto the green parts of the plants as an aqueous suspension or emulsion at a water application rate of 600 to 800 l/ha (converted) with addition of 0.2% wetting agent. After the test plants have been left to stand in the greenhouse under optimal growth conditions for about 3 weeks, the action of the formulations is assessed visually in comparison to untreated controls (herbicidal action in percent (%): 100% activity=the plants have died, 0% activity=like control plants). Here, the compounds Nos. 1-001, 1-002, 1-004, 1-005, 1-007, 1-008, 1-014, 1-015, 1-017, 1-018, 1-020, 1-033, 1-040, 1-041, 1-043, 1-044, 1-046, 1-047, 1-053, 1-054, 1-056, 1-057, 1-059, 1-060, 1-079, 1-080, 1-082, 1-083, 1-086, 1-092, 1-093, 1-095, 1-096, 1-098, 1-099, 2-015, 3-014, 3-015, 3-017, 3-018, 3-020, 5-082, 5-095, 6-017, 7-017 and 8-014 each show, at an application rate of 80 g/ha, an activity of at least 80% against Abuthilon theophrasti, Amaranthus retroflexus and Stellaria media. The compounds Nos. 4-092, 4-093, 5-004, 5-017, 5-043 and 5-056 each show, at an application rate of 80 g/ha, an activity of at least 80% against Echinocloa crus galli, Pharbitis purpureum and Stellaria media.

Stellaria media [4] = assay: as above; conditions: application rate 80 g/ha, assessed visually after about 3 weeks vs untreated controls
Experimental: as §2

Abuthilon theophrasti [5] = assay: as above; conditions: application rate 80 g/ha, assessed visually after about 3 weeks vs untreated controls
Experimental: as §2

Setaria viridis = assay: Pre-emergence herbicidal action against harmful plants; conditions: application rate 320 g/ha, assessed visually after 3 weeks vs untreated controls
Description: as §1

Stellaria media [6] = assay: as above; conditions: application rate 320 g/ha, assessed visually after 3 weeks vs untreated controls
Description: as §1

Cn1nnnc1NC(=O)c1ccc(Cl)c(C=NOCC2CC2)c1Cl [1-004]
at least 80%: herbicidal activity in percent (%) (Amaranthus retroflexus [1]) | herbicidal activity in percent (%) (Abuthilon theophrasti [2]) | herbicidal action in percent (%) (Amaranthus retroflexus [3]) | herbicidal action in percent (%) (Stellaria media [4]) | herbicidal action in percent (%) (Abuthilon theophrasti [5])

C#CCON=Cc1c(Cl)ccc(C(=O)Nc2nnnn2C)c1Cl [1-005]
at least 80%: herbicidal activity in percent (%) (Setaria viridis) | herbicidal activity in percent (%) (Stellaria media [6]) | herbicidal action in percent (%) (Amaranthus retroflexus [3]) | herbicidal action in percent (%) (Stellaria media [4]) | herbicidal action in percent (%) (Abuthilon theophrasti [5])

CC(C)CON=Cc1c(Cl)ccc(C(=O)Nc2nnnn2C)c1Cl [1-007]
at least 80%: herbicidal activity in percent (%) (Amaranthus retroflexus [1]) | herbicidal activity in percent (%) (Abuthilon theophrasti [2]) | herbicidal action in percent (%) (Amaranthus retroflexus [3]) | herbicidal action in percent (%) (Stellaria media [4]) | herbicidal action in percent (%) (Abuthilon theophrasti [5])

CC(C)=CCON=Cc1c(Cl)ccc(C(=O)Nc2nnnn2C)c1Cl [1-008]
at least 80%: herbicidal activity in percent (%) (Amaranthus retroflexus [1]) | herbicidal activity in percent (%) (Abuthilon theophrasti [2]) | herbicidal action in percent (%) (Amaranthus retroflexus [3]) | herbicidal action in percent (%) (Stellaria media [4]) | herbicidal action in percent (%) (Abuthilon theophrasti [5])

Cn1nnnc1NC(=O)c1ccc(S(C)(=O)=O)c(C=NOCC2CC2)c1Cl [1-017]
at least 80%: herbicidal activity in percent (%) (Setaria viridis) | herbicidal activity in percent (%) (Stellaria media [6]) | herbicidal action in percent (%) (Amaranthus retroflexus [3]) | herbicidal action in percent (%) (Stellaria media [4]) | herbicidal action in percent (%) (Abuthilon theophrasti [5])

C#CCON=Cc1c(S(C)(=O)=O)ccc(C(=O)Nc2nnnn2C)c1Cl [1-018]
at least 80%: herbicidal activity in percent (%) (Setaria viridis) | herbicidal activity in percent (%) (Stellaria media [6]) | herbicidal action in percent (%) (Amaranthus retroflexus [3]) | herbicidal action in percent (%) (Stellaria media [4]) | herbicidal action in percent (%) (Abuthilon theophrasti [5])

CC(C)CON=Cc1c(S(C)(=O)=O)ccc(C(=O)Nc2nnnn2C)c1Cl [1-020]
at least 80%: herbicidal activity in percent (%) (Setaria viridis) | herbicidal activity in percent (%) (Stellaria media [6]) | herbicidal action in percent (%) (Amaranthus retroflexus [3]) | herbicidal action in percent (%) (Stellaria media [4]) | herbicidal action in percent (%) (Abuthilon theophrasti [5])

CCn1nnnc1NC(=O)c1ccc(Cl)c(C=NOCC2CC2)c1Cl [1-043]
at least 80%: herbicidal activity in percent (%) (Amaranthus retroflexus [1]) | herbicidal activity in percent (%) (Abuthilon theophrasti [2]) | herbicidal action in percent (%) (Amaranthus retroflexus [3]) | herbicidal action in percent (%) (Stellaria media [4]) | herbicidal action in percent (%) (Abuthilon theophrasti [5])

C#CCON=Cc1c(Cl)ccc(C(=O)Nc2nnnn2CC)c1Cl [1-044]
at least 80%: herbicidal activity in percent (%) (Amaranthus retroflexus [1]) | herbicidal activity in percent (%) (Abuthilon theophrasti [2]) | herbicidal action in percent (%) (Amaranthus retroflexus [3]) | herbicidal action in percent (%) (Stellaria media [4]) | herbicidal action in percent (%) (Abuthilon theophrasti [5])

CCn1nnnc1NC(=O)c1ccc(Cl)c(C=NOCC(C)C)c1Cl [1-046]
at least 80%: herbicidal activity in percent (%) (Amaranthus retroflexus [1]) | herbicidal activity in percent (%) (Abuthilon theophrasti [2]) | herbicidal action in percent (%) (Amaranthus retroflexus [3]) | herbicidal action in percent (%) (Stellaria media [4]) | herbicidal action in percent (%) (Abuthilon theophrasti [5])

CCn1nnnc1NC(=O)c1ccc(Cl)c(C=NOCC=C(C)C)c1Cl [1-047]
at least 80%: herbicidal activity in percent (%) (Amaranthus retroflexus [1]) | herbicidal activity in percent (%) (Abuthilon theophrasti [2]) | herbicidal action in percent (%) (Amaranthus retroflexus [3]) | herbicidal action in percent (%) (Stellaria media [4]) | herbicidal action in percent (%) (Abuthilon theophrasti [5])

CCn1nnnc1NC(=O)c1ccc(S(C)(=O)=O)c(C=NOCC(C)C)c1Cl [1-059]
at least 80%: herbicidal activity in percent (%) (Amaranthus retroflexus [1]) | herbicidal activity in percent (%) (Abuthilon theophrasti [2]) | herbicidal action in percent (%) (Amaranthus retroflexus [3]) | herbicidal action in percent (%) (Stellaria media [4]) | herbicidal action in percent (%) (Abuthilon theophrasti [5])

CCn1nnnc1NC(=O)c1ccc(S(C)(=O)=O)c(C=NOCC=C(C)C)c1Cl [1-060]
at least 80%: herbicidal activity in percent (%) (Amaranthus retroflexus [1]) | herbicidal activity in percent (%) (Abuthilon theophrasti [2]) | herbicidal action in percent (%) (Amaranthus retroflexus [3]) | herbicidal action in percent (%) (Stellaria media [4]) | herbicidal action in percent (%) (Abuthilon theophrasti [5])

CCCn1nnnc1NC(=O)c1ccc(Cl)c(C=NOCC2CC2)c1Cl [1-082]
at least 80%: herbicidal activity in percent (%) (Amaranthus retroflexus [1]) | herbicidal activity in percent (%) (Abuthilon theophrasti [2]) | herbicidal action in percent (%) (Amaranthus retroflexus [3]) | herbicidal action in percent (%) (Stellaria media [4]) | herbicidal action in percent (%) (Abuthilon theophrasti [5])

C#CCON=Cc1c(Cl)ccc(C(=O)Nc2nnnn2CCC)c1Cl [1-083]
at least 80%: herbicidal activity in percent (%) (Amaranthus retroflexus [1]) | herbicidal activity in percent (%) (Abuthilon theophrasti [2]) | herbicidal action in percent (%) (Amaranthus retroflexus [3]) | herbicidal action in percent (%) (Stellaria media [4]) | herbicidal action in percent (%) (Abuthilon theophrasti [5])

CCCn1nnnc1NC(=O)c1ccc(Cl)c(C=NOCC(C)C)c1Cl [1-085]
at least 80%: herbicidal activity in percent (%) (Amaranthus retroflexus [1]) | herbicidal activity in percent (%) (Abuthilon theophrasti [2])

CCCn1nnnc1NC(=O)c1ccc(Cl)c(C=NOCC=C(C)C)c1Cl [1-086]
at least 80%: herbicidal action in percent (%) (Amaranthus retroflexus [3]) | herbicidal action in percent (%) (Stellaria media [4]) | herbicidal action in percent (%) (Abuthilon theophrasti [5])

CCCn1nnnc1NC(=O)c1ccc(S(C)(=O)=O)c(C=NOCC2CC2)c1Cl [1-095]
at least 80%: herbicidal activity in percent (%) (Amaranthus retroflexus [1]) | herbicidal activity in percent (%) (Abuthilon theophrasti [2]) | herbicidal action in percent (%) (Amaranthus retroflexus [3]) | herbicidal action in percent (%) (Stellaria media [4]) | herbicidal action in percent (%) (Abuthilon theophrasti [5])

C#CCON=Cc1c(S(C)(=O)=O)ccc(C(=O)Nc2nnnn2CCC)c1Cl [1-096]
at least 80%: herbicidal activity in percent (%) (Amaranthus retroflexus [1]) | herbicidal activity in percent (%) (Abuthilon theophrasti [2]) | herbicidal action in percent (%) (Amaranthus retroflexus [3]) | herbicidal action in percent (%) (Stellaria media [4]) | herbicidal action in percent (%) (Abuthilon theophrasti [5])

CCCn1nnnc1NC(=O)c1ccc(S(C)(=O)=O)c(C=NOCC(C)C)c1Cl [1-098]
at least 80%: herbicidal activity in percent (%) (Amaranthus retroflexus [1]) | herbicidal activity in percent (%) (Abuthilon theophrasti [2]) | herbicidal action in percent (%) (Amaranthus retroflexus [3]) | herbicidal action in percent (%) (Stellaria media [4]) | herbicidal action in percent (%) (Abuthilon theophrasti [5])

CCCn1nnnc1NC(=O)c1ccc(S(C)(=O)=O)c(C=NOCC=C(C)C)c1Cl [1-099]
at least 80%: herbicidal activity in percent (%) (Amaranthus retroflexus [1]) | herbicidal activity in percent (%) (Abuthilon theophrasti [2]) | herbicidal action in percent (%) (Amaranthus retroflexus [3]) | herbicidal action in percent (%) (Stellaria media [4]) | herbicidal action in percent (%) (Abuthilon theophrasti [5])

C#CCON=Cc1c(S(C)(=O)=O)ccc(C(=O)Nc2nonc2C)c1Cl [3-018]
at least 80%: herbicidal activity in percent (%) (Amaranthus retroflexus [1]) | herbicidal activity in percent (%) (Abuthilon theophrasti [2]) | herbicidal action in percent (%) (Amaranthus retroflexus [3]) | herbicidal action in percent (%) (Stellaria media [4]) | herbicidal action in percent (%) (Abuthilon theophrasti [5])

Cc1nonc1NC(=O)c1ccc(S(C)(=O)=O)c(C=NOCC(C)C)c1Cl [3-020]
at least 80%: herbicidal activity in percent (%) (Amaranthus retroflexus [1]) | herbicidal activity in percent (%) (Abuthilon theophrasti [2]) | herbicidal action in percent (%) (Amaranthus retroflexus [3]) | herbicidal action in percent (%) (Stellaria media [4]) | herbicidal action in percent (%) (Abuthilon theophrasti [5])
